# Drug screen on melanoma cell lines: apoptosis marker

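Human melanoma cells were exposed to two drugs together for 72 h in 1,536-well plates and read by automated microscopy after fixing and staining. The read-out is the fraction of cleaved-PARP-positive nuclei, in % of that fraction in the DMSO control; 200 means twice the control level of this apoptosis marker. Concentrations were fixed for each drug; these are the higher of two levels. No replicate spread is given; individual values may be noisy. Basal and induced levels differ widely between cell lines.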 This is part of the screen, not chosen by result. An entry leaves out what has no value listed here. A dash means that no value is listed here.

First drug in all entries: nilutamide, 5 µM, CC1(C)NC(=O)N(c2ccc([N+](=O)[O-])c(C(F)(F)F)c2)C1=O

Compounds and concentrations:
L-779450: Oc1cc(-c2nc(-c3ccccc3)[nH]c2-c2ccncc2)ccc1Cl at 1 µM
pioglitazone: CCc1ccc(CCOc2ccc(CC3SC(=O)NC3=O)cc2)nc1 (stereo unspecified) at 10 µM
BMS-536924: Cc1cc(N2CCOCC2)cc2[nH]c(-c3c(NC[C@@H](O)c4cccc(Cl)c4)cc[nH]c3=O)nc12 at 1 µM
embelin: CCCCCCCCCCCC1=C(O)C(=O)C=C(O)C1=O at 6 µM
CP-690550: C[C@@H]1CCN(C(=O)CC#N)C[C@@H]1N(C)c1ncnc2[nH]ccc12 at 5 µM
cediranib: COc1cc2c(Oc3ccc4[nH]c(C)cc4c3F)ncnc2cc1OCCCN1CCCC1 at 2 µM
dorsomorphin: c1cc(-c2cnn3cc(-c4ccc(OCCN5CCCCC5)cc4)cnc23)ccn1 at 2 µM
darinaparsin: C[As](C)SC[C@H](NC(=O)CC[C@H](N)C(=O)O)C(=O)NCC(=O)O at 2 µM
perifosine: CCCCCCCCCCCCCCCCCCOP(=O)([O-])OC1CC[N+](C)(C)CC1 at 2 µM
cisplatin: N.N.[Cl][Pt][Cl] at 8 µM
NVP-TAE684: COc1cc(N2CCC(N3CCN(C)CC3)CC2)ccc1Nc1ncc(Cl)c(Nc2ccccc2S(=O)(=O)C(C)C)n1 at 0.4 µM
tozasertib: Cc1cc(Nc2cc(N3CCN(C)CC3)nc(Sc3ccc(NC(=O)C4CC4)cc3)n2)n[nH]1 at 0.03 µM
gemcitabine: Nc1ccn([C@@H]2O[C@H](CO)[C@@H](O)C2(F)F)c(=O)n1 at 0.002 µM
vorinostat: O=C(CCCCCCC(=O)Nc1ccccc1)NO at 0.4 µM
etoposide: COc1cc([C@@H]2c3cc4c(cc3[C@@H](O[C@@H]3O[C@@H]5CO[C@@H](C)O[C@H]5[C@H](O)[C@H]3O)[C@H]3COC(=O)[C@H]23)OCO4)cc(OC)c1O at 0.1 µM
lestaurtinib: C[C@]12O[C@H](C[C@]1(O)CO)n1c3ccccc3c3c4c(c5c6ccccc6n2c5c31)CNC4=O at 0.02 µM
OSU-03012: NCC(=O)Nc1ccc(-n2nc(C(F)(F)F)cc2-c2ccc3c(ccc4ccccc43)c2)cc1 at 5 µM
IMD-0354: O=C(Nc1cc(C(F)(F)F)cc(C(F)(F)F)c1)c1cc(Cl)ccc1O at 0.08 µM
decitabine: Nc1ncn([C@H]2C[C@H](O)[C@@H](CO)O2)c(=O)n1 at 0.5 µM
NVP-BEZ235: Cn1c(=O)n(-c2ccc(C(C)(C)C#N)cc2)c2c3cc(-c4cnc5ccccc5c4)ccc3ncc21 at 0.02 µM
nutlin-3: COc1ccc(C2=N[C@@H](c3ccc(Cl)cc3)[C@@H](c3ccc(Cl)cc3)N2C(=O)N2CCNC(=O)C2)c(OC(C)C)c1 at 0.5 µM
midostaurin: CO[C@@H]1[C@H](N(C)C(=O)c2ccccc2)C[C@H]2O[C@]1(C)n1c3ccccc3c3c4c(c5c6ccccc6n2c5c31)C(=O)NC4 at 0.4 µM
VX-702: NC(=O)c1ccc(N(C(N)=O)c2c(F)cccc2F)nc1-c1ccc(F)cc1F at 2 µM
STA-4783: CN(NC(=O)CC(=O)NN(C)C(=S)c1ccccc1)C(=S)c1ccccc1 at 0.03 µM
vincristine: CC[C@]1(O)C[C@H]2CN(CCc3c([nH]c4ccccc34)[C@@](C(=O)OC)(c3cc4c(cc3OC)N(C=O)[C@H]3[C@@](O)(C(=O)OC)[C@H](OC(C)=O)[C@]5(CC)C=CCN6CC[C@]43[C@@H]65)C2)C1 at 0.0005 µM
BI-78D3: O=c1[nH]nc(Sc2ncc([N+](=O)[O-])s2)n1-c1ccc2c(c1)OCCO2 at 1 µM
U73122: COc1ccc2c(c1)CCC1C2CCC2(C)C(NCCCCCCN3C(=O)C=CC3=O)CCC12 (stereo unspecified) at 2 µM
stibogluconate: O=C(O)[C@@H]1[O][Sb](=[O])([O][Sb]2(=[O])[O][C@H]([C@H](O)CO)[C@H](O)[C@H](C(=O)O)[O]2)[O][C@H]([C@H](O)CO)[C@@H]1O (stereo partly specified) at 10 µM
FH535: Cc1cc([N+](=O)[O-])ccc1NS(=O)(=O)c1cc(Cl)ccc1Cl at 5 µM
LFM-A13: C/C(O)=C(\C#N)C(=O)Nc1cc(Br)ccc1Br at 10 µM
pazopanib: Cc1ccc(Nc2nccc(N(C)c3ccc4c(C)n(C)nc4c3)n2)cc1S(N)(=O)=O at 2 µM
lapatinib: CS(=O)(=O)CCNCc1ccc(-c2ccc3ncnc(Nc4ccc(OCc5cccc(F)c5)c(Cl)c4)c3c2)o1 at 4 µM
selumetinib: Cn1cnc2c(F)c(Nc3ccc(Br)cc3Cl)c(C(=O)NOCCO)cc21 at 0.075 µM
sorafenib: CNC(=O)c1cc(Oc2ccc(NC(=O)Nc3ccc(Cl)c(C(F)(F)F)c3)cc2)ccn1 at 2 µM
A-769662: N#Cc1c(O)c2c(-c3ccc(-c4ccccc4O)cc3)csc2[nH]c1=O at 10 µM

Partner,SK-MEL-2,WM1745,SK-MEL-28,MZ2-MEL,A2058,COLO 792
etoposide,108,91.4,87.5,142,99.5,76.7
midostaurin,204,154,75.8,-,301,154
selumetinib,254,190,119,209,106,57.8
vorinostat,96.5,76.2,312,53.6,82.2,52.0
STA-4783,60.0,274,171,55.7,1530,267
tozasertib,113,148,51.0,448,104,143
gemcitabine,49.8,149,14.6,213,90.5,50.3
lestaurtinib,54.7,83.9,109,99.3,118,139
dorsomorphin,168,159,213,77.5,133,80.3
BMS-536924,121,265,162,164,151,220
NVP-TAE684,47.9,184,82.2,109,174,49.5
cisplatin,99.6,87.7,102,208,87.6,134
CP-690550,136,102,213,65.7,105,67.2
IMD-0354,20.1,86.1,165,68.1,83.7,60.2
stibogluconate,89.2,899,60.6,75.7,135,86.9
OSU-03012,343,110,187,59.1,52.2,201
sorafenib,122,143,55.3,107,134,89.8
NVP-BEZ235,147,135,125,156,175,289
vincristine,156,67.3,111,128,1630,103
U73122,78.1,112,106,161,79.4,43.5
BI-78D3,60.5,74.8,41.7,111,73.1,67.9
decitabine,130,310,273,79.0,172,63.6
perifosine,225,108,222,136,177,50.3
embelin,86.2,121,109,38.1,78.1,101
LFM-A13,79.8,94.9,56.1,387,54.5,54.8
L-779450,337,149,56.7,65.3,97.2,83.5
cediranib,73.3,107,249,40.0,99.4,148
lapatinib,103,103,105,66.7,106,215
FH535,111,143,176,123,108,124
A-769662,183,80.2,165,52.5,102,89.1
nutlin-3,106,314,78.4,129,171,149
pioglitazone,71.7,140,120,99.5,124,97.0
pazopanib,84.8,73.8,26.2,162,81.5,107
darinaparsin,90.0,83.6,119,217,84.0,52.1
VX-702,65.9,82.0,60.2,56.0,57.6,118

4 of the entries, repeated:

{"partner": "nutlin-3", "SK-MEL-2": 106, "WM1745": 314, "SK-MEL-28": 78.4, "MZ2-MEL": 129, "A2058": 171, "COLO 792": 149}
{"partner": "dorsomorphin", "SK-MEL-2": 168, "WM1745": 159, "SK-MEL-28": 213, "MZ2-MEL": 77.5, "A2058": 133, "COLO 792": 80.3}
{"partner": "BI-78D3", "SK-MEL-2": 60.5, "WM1745": 74.8, "SK-MEL-28": 41.7, "MZ2-MEL": 111, "A2058": 73.1, "COLO 792": 67.9}
{"partner": "A-769662", "SK-MEL-2": 183, "WM1745": 80.2, "SK-MEL-28": 165, "MZ2-MEL": 52.5, "A2058": 102, "COLO 792": 89.1}

Source: doi:10.1371/journal.pone.0140310, primary screening data, rounded.